Measurements reported in PMC7482815.
No constants are given. Whether binding was seen depends on the method and setting. Binding seen in cells or lysates may run through a third protein. Some binding calls cover weakened binding; strength is not graded here. One block for each molecule: values may come before it.

Chains of the proteins cited; added tags and fusions are not shown. Lines headed by an entry give the natural chain unless they say otherwise; changes in a name come on top. A line that says so, or that is headed by a name, gives the form on record, which may keep a tag or linker. Residues count along the entry.
UniProt Q93009: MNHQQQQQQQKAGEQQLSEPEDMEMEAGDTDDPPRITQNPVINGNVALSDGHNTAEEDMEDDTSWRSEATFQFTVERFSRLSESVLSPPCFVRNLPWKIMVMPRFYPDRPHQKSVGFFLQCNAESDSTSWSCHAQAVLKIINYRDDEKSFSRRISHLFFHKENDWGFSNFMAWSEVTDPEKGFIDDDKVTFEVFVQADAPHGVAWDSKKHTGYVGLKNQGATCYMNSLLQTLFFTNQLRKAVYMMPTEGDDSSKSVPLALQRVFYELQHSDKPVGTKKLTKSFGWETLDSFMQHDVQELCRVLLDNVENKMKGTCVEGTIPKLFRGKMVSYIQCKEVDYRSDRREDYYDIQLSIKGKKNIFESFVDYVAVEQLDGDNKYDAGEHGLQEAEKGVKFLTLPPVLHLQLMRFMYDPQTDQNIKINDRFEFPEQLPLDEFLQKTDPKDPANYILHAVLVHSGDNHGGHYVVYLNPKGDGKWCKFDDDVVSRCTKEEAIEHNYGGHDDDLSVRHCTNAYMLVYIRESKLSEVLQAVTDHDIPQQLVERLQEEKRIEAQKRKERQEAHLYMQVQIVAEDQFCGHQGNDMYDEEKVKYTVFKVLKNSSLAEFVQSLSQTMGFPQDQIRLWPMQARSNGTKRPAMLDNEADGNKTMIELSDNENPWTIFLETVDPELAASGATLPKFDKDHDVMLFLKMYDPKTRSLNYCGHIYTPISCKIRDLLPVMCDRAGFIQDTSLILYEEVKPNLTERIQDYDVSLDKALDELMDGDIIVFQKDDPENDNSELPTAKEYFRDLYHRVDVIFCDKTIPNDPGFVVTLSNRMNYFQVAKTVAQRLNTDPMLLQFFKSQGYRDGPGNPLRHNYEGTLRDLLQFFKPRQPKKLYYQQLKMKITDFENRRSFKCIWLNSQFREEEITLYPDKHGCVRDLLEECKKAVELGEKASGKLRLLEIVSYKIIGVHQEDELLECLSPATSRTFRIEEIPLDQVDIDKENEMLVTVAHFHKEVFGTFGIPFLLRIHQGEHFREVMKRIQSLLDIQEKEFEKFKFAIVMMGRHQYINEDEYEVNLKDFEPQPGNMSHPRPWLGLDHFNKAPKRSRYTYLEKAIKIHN
FLAG-tagged MATH domain of USP7: residues 68-195 of Q93009
UniProt P60953: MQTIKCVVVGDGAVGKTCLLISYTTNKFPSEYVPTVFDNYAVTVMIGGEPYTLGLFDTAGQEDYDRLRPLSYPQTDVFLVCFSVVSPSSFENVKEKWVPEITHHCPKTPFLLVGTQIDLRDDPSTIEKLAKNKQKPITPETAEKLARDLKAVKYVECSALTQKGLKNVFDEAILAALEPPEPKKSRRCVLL

Columns and labels:
[1] = molecular target: ubiquitin-specific protease USP7, endogenous (human (endogenous in MCF-7, HeLa, U2OS)) (UniProt Q93009); assay: co-IP; endogenous proteins, whole cell lysates of MCF-7 and HeLa cells in NETN buffer (50 mM Tris-HCl pH 8.0, 150 mM NaCl, 0.2% Nonidet P-40, 2 mM EDTA), antibodies against USP7 or ECT2, protein G magnetic beads, 4 °C, immunoblot
[2] = molecular target: T1, epithelial cell transforming sequence 2 (ECT2), endogenous (human (endogenous in MCF-7, HeLa)) (UniProt Q9H8V3); assay: as above
T1 sequence: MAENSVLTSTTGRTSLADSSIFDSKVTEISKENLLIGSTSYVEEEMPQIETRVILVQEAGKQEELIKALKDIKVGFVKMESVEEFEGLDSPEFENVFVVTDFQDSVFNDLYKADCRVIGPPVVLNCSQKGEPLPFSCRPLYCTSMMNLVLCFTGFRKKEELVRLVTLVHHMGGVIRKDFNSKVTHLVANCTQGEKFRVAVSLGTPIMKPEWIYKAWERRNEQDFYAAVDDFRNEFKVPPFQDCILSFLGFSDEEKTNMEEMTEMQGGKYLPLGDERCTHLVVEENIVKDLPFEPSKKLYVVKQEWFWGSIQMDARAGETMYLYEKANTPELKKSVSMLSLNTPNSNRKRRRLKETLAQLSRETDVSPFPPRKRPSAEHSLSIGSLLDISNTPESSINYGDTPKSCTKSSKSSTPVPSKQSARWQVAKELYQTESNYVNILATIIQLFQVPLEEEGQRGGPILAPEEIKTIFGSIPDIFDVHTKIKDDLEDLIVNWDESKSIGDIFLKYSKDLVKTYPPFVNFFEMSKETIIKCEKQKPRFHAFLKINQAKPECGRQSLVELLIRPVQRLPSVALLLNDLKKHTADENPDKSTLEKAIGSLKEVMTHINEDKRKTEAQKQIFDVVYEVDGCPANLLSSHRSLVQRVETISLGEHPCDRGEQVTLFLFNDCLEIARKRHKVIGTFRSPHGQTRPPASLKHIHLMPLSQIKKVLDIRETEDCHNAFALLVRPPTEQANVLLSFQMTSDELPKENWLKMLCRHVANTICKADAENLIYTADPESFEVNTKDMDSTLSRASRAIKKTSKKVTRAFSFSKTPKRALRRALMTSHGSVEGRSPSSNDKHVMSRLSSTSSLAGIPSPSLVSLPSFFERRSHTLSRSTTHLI

[3] = molecular target: T1, epithelial cell transforming sequence 2 (ECT2), endogenous (human (endogenous in MCF-7, HeLa)); assay: co-IP; cytosolic fraction of MCF-7 cells (nuclear/cytosol separation kit), endogenous proteins
[4] = molecular target: T1, epithelial cell transforming sequence 2 (ECT2), endogenous (human (endogenous in MCF-7, HeLa)); assay: co-IP; nuclear fraction of MCF-7 cells (nuclear/cytosol separation kit), endogenous proteins
[5] = molecular target: FLAG-tagged MATH domain of USP7 (UniProt Q93009); assay: co-IP; whole cell lysates of HeLa cells transfected with ECT2/wt, ECT2/GEF^mt or FLAG-tagged deletion mutants of USP7 or ECT2; the partner detected by immunoblot

- binding [1]: no binding
- binding [2]: binds
Molecule: cell division cycle 42 (CDC42), endogenous (from UniProt P60953 1-191)

- binding [2]: binds
- binding [4]: binds
Molecule: ubiquitin-specific protease USP7, endogenous (from UniProt Q93009 1-1102)
- binding [3]: no binding (condition: cytosolic fraction of MCF-7 cells)

- binding [1]: binds
- binding [5]: no binding
B1: epithelial cell transforming sequence 2 (ECT2), endogenous (protein, UniProt Q9H8V3-4 1-883)
chain: T1 sequence
